Measured values published in the supplement of paper PMC10849652.
This is one part of the list.

Sequences of proteins named here, by UniProt entry; tags and fusion partners are left off. A change or cut given only in a name is not applied to a line headed by its entry.
UniProt Q9UJX6, whole entry, looked up: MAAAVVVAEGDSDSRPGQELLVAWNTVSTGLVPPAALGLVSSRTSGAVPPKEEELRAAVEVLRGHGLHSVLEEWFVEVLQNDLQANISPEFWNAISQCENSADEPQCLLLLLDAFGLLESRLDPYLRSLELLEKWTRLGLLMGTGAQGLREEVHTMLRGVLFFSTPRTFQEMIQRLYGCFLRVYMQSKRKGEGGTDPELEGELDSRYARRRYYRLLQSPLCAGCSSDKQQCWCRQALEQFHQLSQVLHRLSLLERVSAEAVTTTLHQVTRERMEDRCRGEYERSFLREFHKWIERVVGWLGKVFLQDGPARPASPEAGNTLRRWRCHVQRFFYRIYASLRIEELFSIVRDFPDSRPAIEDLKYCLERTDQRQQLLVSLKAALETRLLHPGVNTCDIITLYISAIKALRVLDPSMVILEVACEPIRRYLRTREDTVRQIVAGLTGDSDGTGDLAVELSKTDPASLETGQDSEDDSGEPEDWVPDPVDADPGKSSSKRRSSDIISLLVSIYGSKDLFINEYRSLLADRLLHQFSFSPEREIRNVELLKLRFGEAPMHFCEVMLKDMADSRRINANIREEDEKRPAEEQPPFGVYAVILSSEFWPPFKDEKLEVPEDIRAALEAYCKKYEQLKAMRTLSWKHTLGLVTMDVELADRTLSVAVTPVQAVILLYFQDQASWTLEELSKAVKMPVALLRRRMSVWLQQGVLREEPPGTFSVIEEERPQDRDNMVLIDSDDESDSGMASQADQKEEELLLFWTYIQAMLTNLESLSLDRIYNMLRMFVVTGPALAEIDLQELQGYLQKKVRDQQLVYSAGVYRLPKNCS
UniProt Q13795: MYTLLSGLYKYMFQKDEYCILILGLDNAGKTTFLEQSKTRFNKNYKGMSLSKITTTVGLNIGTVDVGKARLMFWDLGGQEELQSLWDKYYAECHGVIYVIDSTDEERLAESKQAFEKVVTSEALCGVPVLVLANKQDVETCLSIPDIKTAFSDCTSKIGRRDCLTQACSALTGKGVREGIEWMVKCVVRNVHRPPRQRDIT
UniProt O95782: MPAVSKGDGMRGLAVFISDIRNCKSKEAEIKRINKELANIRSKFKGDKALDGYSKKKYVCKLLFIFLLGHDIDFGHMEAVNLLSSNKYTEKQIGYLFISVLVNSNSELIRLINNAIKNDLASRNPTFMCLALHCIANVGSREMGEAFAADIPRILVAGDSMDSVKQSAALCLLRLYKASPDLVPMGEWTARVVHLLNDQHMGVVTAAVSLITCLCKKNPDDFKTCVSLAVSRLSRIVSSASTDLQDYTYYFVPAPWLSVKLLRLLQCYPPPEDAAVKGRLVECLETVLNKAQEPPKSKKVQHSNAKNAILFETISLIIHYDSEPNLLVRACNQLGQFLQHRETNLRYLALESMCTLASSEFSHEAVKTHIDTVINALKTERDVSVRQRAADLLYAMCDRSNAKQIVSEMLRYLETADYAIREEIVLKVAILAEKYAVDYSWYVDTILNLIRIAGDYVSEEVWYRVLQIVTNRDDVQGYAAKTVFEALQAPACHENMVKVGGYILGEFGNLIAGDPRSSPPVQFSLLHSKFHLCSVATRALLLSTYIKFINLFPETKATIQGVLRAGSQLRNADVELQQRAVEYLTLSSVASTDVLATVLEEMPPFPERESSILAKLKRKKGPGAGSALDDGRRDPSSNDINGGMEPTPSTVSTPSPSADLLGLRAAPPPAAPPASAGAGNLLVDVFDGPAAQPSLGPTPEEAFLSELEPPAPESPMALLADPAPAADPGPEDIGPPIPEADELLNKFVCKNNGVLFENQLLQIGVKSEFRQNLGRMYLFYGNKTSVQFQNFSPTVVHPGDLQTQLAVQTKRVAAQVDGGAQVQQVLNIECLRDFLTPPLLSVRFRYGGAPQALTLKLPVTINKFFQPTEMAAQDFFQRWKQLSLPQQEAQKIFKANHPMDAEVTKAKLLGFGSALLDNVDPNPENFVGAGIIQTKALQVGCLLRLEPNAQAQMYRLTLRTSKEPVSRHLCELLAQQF
UniProt Q9H8Y5: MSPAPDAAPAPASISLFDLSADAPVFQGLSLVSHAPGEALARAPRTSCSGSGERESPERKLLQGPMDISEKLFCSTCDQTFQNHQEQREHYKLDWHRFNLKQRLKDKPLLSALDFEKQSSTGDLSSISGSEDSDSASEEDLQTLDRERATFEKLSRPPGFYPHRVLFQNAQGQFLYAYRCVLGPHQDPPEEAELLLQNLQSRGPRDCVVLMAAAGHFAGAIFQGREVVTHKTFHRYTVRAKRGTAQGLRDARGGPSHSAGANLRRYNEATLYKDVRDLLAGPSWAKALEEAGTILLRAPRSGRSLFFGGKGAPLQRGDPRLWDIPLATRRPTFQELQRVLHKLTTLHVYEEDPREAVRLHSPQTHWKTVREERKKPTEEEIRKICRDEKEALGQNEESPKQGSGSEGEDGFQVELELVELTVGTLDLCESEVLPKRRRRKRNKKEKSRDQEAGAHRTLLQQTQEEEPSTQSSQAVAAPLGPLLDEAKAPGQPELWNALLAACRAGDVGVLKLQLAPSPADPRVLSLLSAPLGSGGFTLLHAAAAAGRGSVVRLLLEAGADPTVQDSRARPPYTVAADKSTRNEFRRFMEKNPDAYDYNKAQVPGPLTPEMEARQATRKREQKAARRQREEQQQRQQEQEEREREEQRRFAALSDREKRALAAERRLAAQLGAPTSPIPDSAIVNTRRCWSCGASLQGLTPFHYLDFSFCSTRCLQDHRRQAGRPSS
UniProt P02647, whole entry, looked up: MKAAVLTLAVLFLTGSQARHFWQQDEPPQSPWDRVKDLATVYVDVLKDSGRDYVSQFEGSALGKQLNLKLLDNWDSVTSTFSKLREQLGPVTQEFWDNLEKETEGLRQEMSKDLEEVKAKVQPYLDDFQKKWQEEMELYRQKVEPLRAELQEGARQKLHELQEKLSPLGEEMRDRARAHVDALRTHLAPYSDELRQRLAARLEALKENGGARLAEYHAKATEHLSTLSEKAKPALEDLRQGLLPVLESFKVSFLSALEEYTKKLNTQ
UniProt Q8N6T3: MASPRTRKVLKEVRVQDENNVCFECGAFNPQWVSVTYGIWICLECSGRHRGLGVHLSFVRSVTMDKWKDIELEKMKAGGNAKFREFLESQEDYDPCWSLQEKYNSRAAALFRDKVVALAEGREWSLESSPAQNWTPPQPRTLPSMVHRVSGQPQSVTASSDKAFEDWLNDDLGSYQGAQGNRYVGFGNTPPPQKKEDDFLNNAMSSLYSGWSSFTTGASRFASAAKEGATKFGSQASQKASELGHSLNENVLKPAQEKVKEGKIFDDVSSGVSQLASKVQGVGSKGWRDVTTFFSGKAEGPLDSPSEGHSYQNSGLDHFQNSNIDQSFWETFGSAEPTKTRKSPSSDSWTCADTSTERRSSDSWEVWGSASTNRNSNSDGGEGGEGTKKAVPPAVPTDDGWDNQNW
UniProt P53367: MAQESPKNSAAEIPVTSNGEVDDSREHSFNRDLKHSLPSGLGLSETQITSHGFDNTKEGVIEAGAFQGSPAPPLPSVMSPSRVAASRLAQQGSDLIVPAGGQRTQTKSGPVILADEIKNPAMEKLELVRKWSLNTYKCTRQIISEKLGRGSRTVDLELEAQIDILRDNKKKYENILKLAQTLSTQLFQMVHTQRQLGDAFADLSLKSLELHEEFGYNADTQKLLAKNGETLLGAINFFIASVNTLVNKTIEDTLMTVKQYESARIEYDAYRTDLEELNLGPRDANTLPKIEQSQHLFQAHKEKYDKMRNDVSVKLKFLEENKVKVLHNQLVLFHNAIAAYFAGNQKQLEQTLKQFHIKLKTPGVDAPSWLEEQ
UniProt P53680: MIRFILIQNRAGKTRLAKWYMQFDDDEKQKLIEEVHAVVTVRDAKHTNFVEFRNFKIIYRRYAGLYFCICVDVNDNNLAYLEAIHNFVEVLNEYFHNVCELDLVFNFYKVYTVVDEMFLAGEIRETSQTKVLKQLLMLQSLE
UniProt Q9NWB6: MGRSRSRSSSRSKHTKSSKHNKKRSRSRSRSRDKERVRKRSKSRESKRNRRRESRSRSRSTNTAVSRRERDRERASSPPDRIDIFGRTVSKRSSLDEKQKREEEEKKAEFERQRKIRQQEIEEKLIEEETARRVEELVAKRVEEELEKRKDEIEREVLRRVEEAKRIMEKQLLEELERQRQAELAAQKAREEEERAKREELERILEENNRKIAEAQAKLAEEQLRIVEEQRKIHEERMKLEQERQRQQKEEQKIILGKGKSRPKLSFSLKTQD
UniProt Q9BZZ5: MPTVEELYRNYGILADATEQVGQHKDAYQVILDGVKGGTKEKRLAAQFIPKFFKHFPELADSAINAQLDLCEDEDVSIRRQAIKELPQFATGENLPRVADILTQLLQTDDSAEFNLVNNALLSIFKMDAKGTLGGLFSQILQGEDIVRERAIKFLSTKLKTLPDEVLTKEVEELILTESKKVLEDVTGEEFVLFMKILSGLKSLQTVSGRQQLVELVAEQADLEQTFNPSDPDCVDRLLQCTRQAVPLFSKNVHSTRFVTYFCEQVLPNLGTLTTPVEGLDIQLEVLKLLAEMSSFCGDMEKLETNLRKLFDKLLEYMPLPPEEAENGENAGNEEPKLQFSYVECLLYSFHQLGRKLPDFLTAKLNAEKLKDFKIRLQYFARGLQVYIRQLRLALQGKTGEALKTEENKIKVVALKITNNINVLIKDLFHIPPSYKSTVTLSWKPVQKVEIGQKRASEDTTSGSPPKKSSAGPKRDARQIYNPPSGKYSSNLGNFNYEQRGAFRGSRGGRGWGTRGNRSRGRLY
UniProt Q10567: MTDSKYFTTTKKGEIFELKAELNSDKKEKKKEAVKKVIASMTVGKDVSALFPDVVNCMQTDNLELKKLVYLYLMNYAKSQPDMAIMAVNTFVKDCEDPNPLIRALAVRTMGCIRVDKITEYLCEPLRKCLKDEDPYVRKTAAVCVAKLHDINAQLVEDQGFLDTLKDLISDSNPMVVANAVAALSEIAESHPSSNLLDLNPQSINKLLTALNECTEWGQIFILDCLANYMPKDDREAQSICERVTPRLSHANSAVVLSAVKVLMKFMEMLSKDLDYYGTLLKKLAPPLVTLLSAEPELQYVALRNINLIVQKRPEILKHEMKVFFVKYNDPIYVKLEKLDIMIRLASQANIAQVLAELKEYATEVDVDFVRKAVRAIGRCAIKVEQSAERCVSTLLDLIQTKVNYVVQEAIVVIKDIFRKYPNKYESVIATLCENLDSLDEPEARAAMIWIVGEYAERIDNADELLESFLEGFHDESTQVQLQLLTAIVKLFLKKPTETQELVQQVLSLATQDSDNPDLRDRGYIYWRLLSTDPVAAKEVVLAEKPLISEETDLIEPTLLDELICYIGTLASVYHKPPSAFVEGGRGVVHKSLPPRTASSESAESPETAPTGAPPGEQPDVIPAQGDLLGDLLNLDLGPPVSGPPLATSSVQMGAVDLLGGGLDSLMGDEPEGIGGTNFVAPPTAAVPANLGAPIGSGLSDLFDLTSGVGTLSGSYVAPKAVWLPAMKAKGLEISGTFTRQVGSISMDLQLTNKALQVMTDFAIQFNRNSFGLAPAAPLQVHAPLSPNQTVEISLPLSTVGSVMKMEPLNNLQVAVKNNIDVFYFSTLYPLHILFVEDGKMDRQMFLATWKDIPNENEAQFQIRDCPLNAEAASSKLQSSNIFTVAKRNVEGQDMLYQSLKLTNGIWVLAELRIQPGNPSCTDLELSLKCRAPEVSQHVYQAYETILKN
UniProt O94973, whole entry, looked up: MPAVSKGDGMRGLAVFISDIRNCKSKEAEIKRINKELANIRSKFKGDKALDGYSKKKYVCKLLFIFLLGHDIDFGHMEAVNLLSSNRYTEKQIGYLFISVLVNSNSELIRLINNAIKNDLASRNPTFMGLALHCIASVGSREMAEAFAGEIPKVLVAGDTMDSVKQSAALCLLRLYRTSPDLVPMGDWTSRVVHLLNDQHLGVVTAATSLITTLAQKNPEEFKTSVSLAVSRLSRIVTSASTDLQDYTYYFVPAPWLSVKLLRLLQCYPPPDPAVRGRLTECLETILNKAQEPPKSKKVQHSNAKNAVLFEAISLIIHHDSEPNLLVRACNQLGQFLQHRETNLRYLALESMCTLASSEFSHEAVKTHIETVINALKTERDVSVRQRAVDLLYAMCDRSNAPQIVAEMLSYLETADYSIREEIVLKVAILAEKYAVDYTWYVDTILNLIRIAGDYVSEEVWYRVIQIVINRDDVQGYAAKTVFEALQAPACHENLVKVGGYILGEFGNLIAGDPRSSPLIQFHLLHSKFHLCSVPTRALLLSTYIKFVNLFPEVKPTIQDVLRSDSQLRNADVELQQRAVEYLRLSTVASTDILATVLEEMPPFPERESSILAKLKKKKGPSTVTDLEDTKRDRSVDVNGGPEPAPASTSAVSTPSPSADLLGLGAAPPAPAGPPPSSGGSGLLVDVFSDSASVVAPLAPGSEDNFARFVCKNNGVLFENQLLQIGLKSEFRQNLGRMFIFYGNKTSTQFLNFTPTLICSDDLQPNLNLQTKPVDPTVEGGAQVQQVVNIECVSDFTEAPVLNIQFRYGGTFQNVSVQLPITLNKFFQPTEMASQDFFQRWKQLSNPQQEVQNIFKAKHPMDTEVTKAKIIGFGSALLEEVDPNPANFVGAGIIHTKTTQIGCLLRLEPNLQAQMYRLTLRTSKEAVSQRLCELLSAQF

What was measured:
Assay in all cases: log2 fold change, soluble protein after heating vs DMSO (PISA); higher = thermal stabilisation; K562 cells, 10 uM, 30 min; active = over 0.2 and 3.5 SD of the protein, either way, in both replicates (recomputed)
[1] = compound: NC(=O)Nc1cc(-c2cccc(F)c2)sc1C(=O)N[C@H]1CCCNC1
Procedure, shortened: (§1)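 For each measurement, 10 μM compound was applied for 30 min to K562 cells at 2×10^6 cells/mL. Aliquots were heated for 3 min across 48°C-58°C, pooled, and extracted in PBS with 0.5% NP-40 at 4°C; the supernatant after 21,000xg for 90 min was soluble protein. This was quantified by TMTpro 16plex LC-MS/MS with channel sums equalised, and thermal stability was reported relative to control samples from duplicates, on a log2 fold-change scale.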

[2] = compound: NC(=O)c1cnc(N[C@@H]2CCCC[C@@H]2N)nc1Nc1cccc(-n2nccn2)c1
Procedure, shortened: as §1

[3] = compound: NC1(c2ccc(-c3nc4ccn5c(=O)[nH]nc5c4cc3-c3ccccc3)cc2)CCC1
Procedure, shortened: as §1

[4] = compound: NCC(=O)Nc1ccc(-n2nc(C(F)(F)F)cc2-c2ccc3c(ccc4ccccc43)c2)cc1
Procedure, shortened: as §1

entinostat = compound: Nc1ccccc1NC(=O)c1ccc(CNC(=O)OCc2cccnc2)cc1 [entinostat]
Procedure, shortened: as §1

vorinostat = compound: O=C(CCCCCCC(=O)Nc1ccccc1)NO [vorinostat]
Procedure, shortened: as §1

citarinostat = compound: O=C(CCCCCCNC(=O)c1cnc(N(c2ccccc2)c2ccccc2Cl)nc1)NO [citarinostat]
Procedure, shortened: as §1

silmitasertib = compound: O=C(O)c1ccc2c(c1)nc(Nc1cccc(Cl)c1)c1ccncc12 [silmitasertib]
Procedure, shortened: as §1

[5] = compound: O=C1NC(=O)C(c2cnc3ccccn23)=C1c1cn2c3c(cc(F)cc13)CN(C(=O)N1CCCCC1)CC2
Procedure, shortened: as §1

[6] = compound: c1cc(OCCN2CCCCC2)cc(-c2n[nH]c3ccc(-c4nnc[nH]4)cc23)c1
Procedure, shortened: as §1

entospletinib = compound: c1cn2cc(-c3ccc4cn[nH]c4c3)nc(Nc3ccc(N4CCOCC4)cc3)c2n1 [entospletinib]
Procedure, shortened: as §1

Target | log2 fold change [1] | log2 fold change [2] | log2 fold change [3] | log2 fold change [4] | log2 fold change (entinostat) | log2 fold change (vorinostat) | log2 fold change (citarinostat) | log2 fold change (silmitasertib) | log2 fold change [5] | log2 fold change [6] | log2 fold change (entospletinib)
ANAPC2 (UniProt Q9UJX6) | inactive: 0.079 | inactive: -0.025 | inactive: -0.063 | inactive: -0.023 | inactive: 0.02 | inactive: 0.074 | inactive: 0.124 | inactive: 0.087 | inactive: 0.027 | inactive: -0.049 | 
AP2M1 (UniProt Q96CW1) | active: -0.293 | inactive: 0.004 | inactive: 0.012 | inactive: -0.003 | inactive: -0.007 | inactive: 0.06 | inactive: -0.004 | inactive: 0.029 | active: -0.237 | inactive: -0.209 | 
APAF1 (UniProt O14727) | inactive: 0.016 | inactive: 0.033 | inactive: -0.116 | inactive: -0.104 | inactive: 0.031 | inactive: 0.048 | inactive: 0.093 | inactive: -0.116 | inactive: -0.062 | inactive: -0.016 | 
ARFRP1 (UniProt Q13795) | inactive: 0.167 | inactive: 0.108 | inactive: -0.173 | inactive: 0.067 | inactive: 0.117 | inactive: 0.054 | inactive: 0.025 | inactive: 0.013 | inactive: -0.085 | inactive: 0.074 | 
AP2A1 (UniProt O95782) | active: -0.38 | inactive: 0.061 | inactive: 0.041 | inactive: 0.026 | inactive: -0.002 | inactive: 0.038 | inactive: 0.005 | inactive: 0.047 | active: -0.275 | active: -0.227 | 
ANKZF1 (UniProt Q9H8Y5) | inactive: -0.008 | inactive: 0.026 | inactive: 0.072 | inactive: -0.001 | inactive: 0.03 | inactive: 0.054 | inactive: -0.006 | inactive: -0.051 | inactive: 0.215 | inactive: -0.065 | 
ARHGAP1 (UniProt Q07960) | inactive: -0.068 | inactive: -0.048 | inactive: -0.003 | inactive: -0.051 | inactive: 0.016 | inactive: 0.012 | inactive: 0.009 | inactive: 0.014 | inactive: -0.024 | inactive: -0.093 | 
APOA1 (UniProt P02647) | inactive: -0.094 | inactive: 0.048 | inactive: 0.111 | inactive: 0.015 | inactive: -0.088 | inactive: 0.094 | inactive: 0.039 | inactive: 0.083 | inactive: -0.008 | inactive: 0.148 | inactive: 0.131
ARFGAP1 (UniProt Q8N6T3) | inactive: -0.036 | inactive: -0.033 | inactive: -0.073 | inactive: -0.052 | inactive: 0.041 | inactive: 0.006 | inactive: 0.056 | inactive: 0.063 | inactive: -0.092 | inactive: 0.035 | 
ANKHD1 isoform 6 (UniProt Q8IWZ3) | inactive: 0.074 | inactive: -0.023 | inactive: 0.042 | inactive: -0.021 | inactive: 0.066 | inactive: 0 | inactive: 0.016 | inactive: 0.119 | inactive: 0.234 | inactive: -0.087 | inactive: 0.064
ARHGAP17 (UniProt Q68EM7) | inactive: -0.102 | inactive: -0.113 | inactive: -0.11 | inactive: -0.074 | inactive: 0.055 | inactive: 0.117 | inactive: 0.064 | inactive: 0.091 | inactive: 0.09 | inactive: -0.077 | inactive: 0.01
ARFIP1 (UniProt P53367) | inactive: 0.116 | inactive: -0.002 | inactive: -0.162 | inactive: 0.062 | inactive: 0.079 | inactive: 0.031 | inactive: 0.121 | inactive: -0.011 | inactive: -0.042 | inactive: -0.048 | 
APLP2 (UniProt Q06481) | inactive: -0.13 | inactive: -0.021 | inactive: 0.036 | inactive: 0.054 | inactive: -0.063 | inactive: -0.035 | inactive: 0.02 | inactive: 0 | inactive: 0.074 | inactive: 0.046 | 
AP2B1 isoform 2 (UniProt P63010) | active: -0.225 | inactive: 0.01 | inactive: 0.037 | inactive: 0.002 | inactive: 0 | inactive: 0.01 | inactive: 0.019 | inactive: 0.02 | inactive: -0.202 | inactive: -0.182 | 
ANK3 (UniProt Q12955) | inactive: -0.156 | inactive: 0.022 | inactive: -0.01 | inactive: 0.06 | inactive: -0.056 | inactive: -0.122 | inactive: -0.018 | inactive: 0.068 | inactive: -0.066 | inactive: -0.083 | inactive: 0.071
ARAF (UniProt P10398) | inactive: -0.059 | inactive: 0.196 | inactive: -0.119 | inactive: 0.011 | inactive: 0.062 | inactive: 0.055 | inactive: 0.098 | inactive: 0.048 | inactive: 0.017 | inactive: -0.096 | 
AP2S1 (UniProt P53680) | active: -0.386 | inactive: 0.102 | inactive: -0.009 | inactive: -0.039 | inactive: -0.066 | inactive: 0.108 | inactive: -0.077 | inactive: 0.011 | active: -0.314 | inactive: -0.217 | 
ANKFY1 isoform 4 (UniProt Q9P2R3) | inactive: 0.051 | inactive: -0.095 | inactive: -0.006 | inactive: 0.006 | inactive: 0.082 | inactive: 0.374 | inactive: 0.008 | inactive: 0.058 | inactive: 0.258 | inactive: -0.197 | inactive: 0.084
ARGLU1 (UniProt Q9NWB6) | inactive: -0.089 | inactive: 0.01 | inactive: 0.168 | inactive: -0.08 | inactive: -0.071 | inactive: -0.061 | inactive: 0.026 | inactive: -0.245 | inactive: 0.319 | inactive: -0.208 | 
APOB (UniProt P04114) | inactive: -0.206 | inactive: -0.387 | active: -0.621 | active: -0.806 | inactive: 0.042 | inactive: -0.009 | inactive: 0.015 | inactive: 0.068 | inactive: 0.001 | inactive: 0.056 | 
API5 (UniProt Q9BZZ5) | inactive: 0.001 | inactive: -0.006 | inactive: -0.034 | inactive: -0.013 | inactive: -0.01 | inactive: 0.05 | inactive: 0.048 | inactive: -0.032 | inactive: -0.058 | inactive: -0.054 | inactive: -0.038
ANXA2 isoform 2 (UniProt P07355) | inactive: 0.044 | inactive: 0.011 | inactive: -0.04 | inactive: -0.007 | inactive: 0.041 | inactive: 0 | inactive: 0.062 | inactive: -0.046 | inactive: -0.016 | inactive: 0.108 | inactive: -0.058
ANP32E (UniProt Q9BTT0) | inactive: 0.029 | inactive: -0.043 | inactive: 0.014 | inactive: 0.063 | inactive: 0.016 | inactive: 0.01 | inactive: 0.116 | inactive: 0.083 | inactive: -0.233 | inactive: -0.036 | 
AP1B1 (UniProt Q10567) | inactive: -0.008 | inactive: 0.036 | inactive: -0.048 | inactive: 0.019 | inactive: 0.013 | inactive: 0.016 | inactive: 0.016 | inactive: 0.031 | inactive: 0.015 | inactive: -0.028 | inactive: 0.007
ANXA6 (UniProt P08133) | inactive: -0.048 | inactive: -0.084 | inactive: -0.18 | inactive: -0.125 | inactive: 0.007 | inactive: 0.005 | inactive: 0.029 | inactive: 0.061 | inactive: -0.005 | inactive: -0.114 | inactive: 0.012
AP2A2 isoform 2 (UniProt O94973) | inactive: -0.155 | inactive: 0.052 | inactive: -0.003 | inactive: -0.013 | inactive: 0.002 | inactive: 0.034 | inactive: -0.023 | inactive: -0.016 | inactive: -0.113 | inactive: -0.156 | 

Reprinted from above for reference:
Target | log2 fold change [1] | log2 fold change [2] | log2 fold change [3] | log2 fold change [4] | log2 fold change (entinostat) | log2 fold change (vorinostat) | log2 fold change (citarinostat) | log2 fold change (silmitasertib) | log2 fold change [5] | log2 fold change [6] | log2 fold change (entospletinib)
APOA1 (UniProt P02647) | inactive: -0.094 | inactive: 0.048 | inactive: 0.111 | inactive: 0.015 | inactive: -0.088 | inactive: 0.094 | inactive: 0.039 | inactive: 0.083 | inactive: -0.008 | inactive: 0.148 | inactive: 0.131
ARFGAP1 (UniProt Q8N6T3) | inactive: -0.036 | inactive: -0.033 | inactive: -0.073 | inactive: -0.052 | inactive: 0.041 | inactive: 0.006 | inactive: 0.056 | inactive: 0.063 | inactive: -0.092 | inactive: 0.035 | 
